Source: the supplement of paper PMC10849652
Some of the results follow.

Protein sequences, listed by entry. Tags and fused reporters are not part of them. Lines headed by an entry give the natural chain unless they say otherwise; changes in a name come on top.
UniProt Q96K31: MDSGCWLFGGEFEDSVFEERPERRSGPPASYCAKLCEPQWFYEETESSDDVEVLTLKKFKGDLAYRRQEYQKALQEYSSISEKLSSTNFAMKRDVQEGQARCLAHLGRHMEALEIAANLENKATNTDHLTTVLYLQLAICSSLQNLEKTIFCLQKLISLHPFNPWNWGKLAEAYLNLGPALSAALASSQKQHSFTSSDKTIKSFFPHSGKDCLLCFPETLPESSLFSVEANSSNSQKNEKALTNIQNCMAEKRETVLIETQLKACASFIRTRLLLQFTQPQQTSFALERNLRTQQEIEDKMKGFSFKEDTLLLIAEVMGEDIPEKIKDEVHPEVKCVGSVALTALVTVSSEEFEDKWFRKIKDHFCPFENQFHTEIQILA
UniProt Q9BV19: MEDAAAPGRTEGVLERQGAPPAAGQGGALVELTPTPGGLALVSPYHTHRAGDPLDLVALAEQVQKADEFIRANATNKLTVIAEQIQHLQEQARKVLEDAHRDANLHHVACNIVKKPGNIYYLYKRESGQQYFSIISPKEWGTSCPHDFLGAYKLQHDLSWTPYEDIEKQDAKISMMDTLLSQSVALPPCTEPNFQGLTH
UniProt Q96B23: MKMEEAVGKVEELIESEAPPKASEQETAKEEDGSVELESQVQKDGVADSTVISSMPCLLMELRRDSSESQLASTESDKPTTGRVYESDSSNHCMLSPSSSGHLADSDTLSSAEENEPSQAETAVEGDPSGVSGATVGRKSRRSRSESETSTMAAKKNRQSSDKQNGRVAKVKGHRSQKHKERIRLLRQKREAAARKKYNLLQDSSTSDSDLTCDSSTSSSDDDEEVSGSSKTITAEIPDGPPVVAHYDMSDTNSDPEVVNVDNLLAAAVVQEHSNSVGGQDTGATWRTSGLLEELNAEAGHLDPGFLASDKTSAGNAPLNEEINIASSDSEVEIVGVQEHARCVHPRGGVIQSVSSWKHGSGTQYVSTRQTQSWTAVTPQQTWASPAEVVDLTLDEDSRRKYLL
UniProt Q86VP6: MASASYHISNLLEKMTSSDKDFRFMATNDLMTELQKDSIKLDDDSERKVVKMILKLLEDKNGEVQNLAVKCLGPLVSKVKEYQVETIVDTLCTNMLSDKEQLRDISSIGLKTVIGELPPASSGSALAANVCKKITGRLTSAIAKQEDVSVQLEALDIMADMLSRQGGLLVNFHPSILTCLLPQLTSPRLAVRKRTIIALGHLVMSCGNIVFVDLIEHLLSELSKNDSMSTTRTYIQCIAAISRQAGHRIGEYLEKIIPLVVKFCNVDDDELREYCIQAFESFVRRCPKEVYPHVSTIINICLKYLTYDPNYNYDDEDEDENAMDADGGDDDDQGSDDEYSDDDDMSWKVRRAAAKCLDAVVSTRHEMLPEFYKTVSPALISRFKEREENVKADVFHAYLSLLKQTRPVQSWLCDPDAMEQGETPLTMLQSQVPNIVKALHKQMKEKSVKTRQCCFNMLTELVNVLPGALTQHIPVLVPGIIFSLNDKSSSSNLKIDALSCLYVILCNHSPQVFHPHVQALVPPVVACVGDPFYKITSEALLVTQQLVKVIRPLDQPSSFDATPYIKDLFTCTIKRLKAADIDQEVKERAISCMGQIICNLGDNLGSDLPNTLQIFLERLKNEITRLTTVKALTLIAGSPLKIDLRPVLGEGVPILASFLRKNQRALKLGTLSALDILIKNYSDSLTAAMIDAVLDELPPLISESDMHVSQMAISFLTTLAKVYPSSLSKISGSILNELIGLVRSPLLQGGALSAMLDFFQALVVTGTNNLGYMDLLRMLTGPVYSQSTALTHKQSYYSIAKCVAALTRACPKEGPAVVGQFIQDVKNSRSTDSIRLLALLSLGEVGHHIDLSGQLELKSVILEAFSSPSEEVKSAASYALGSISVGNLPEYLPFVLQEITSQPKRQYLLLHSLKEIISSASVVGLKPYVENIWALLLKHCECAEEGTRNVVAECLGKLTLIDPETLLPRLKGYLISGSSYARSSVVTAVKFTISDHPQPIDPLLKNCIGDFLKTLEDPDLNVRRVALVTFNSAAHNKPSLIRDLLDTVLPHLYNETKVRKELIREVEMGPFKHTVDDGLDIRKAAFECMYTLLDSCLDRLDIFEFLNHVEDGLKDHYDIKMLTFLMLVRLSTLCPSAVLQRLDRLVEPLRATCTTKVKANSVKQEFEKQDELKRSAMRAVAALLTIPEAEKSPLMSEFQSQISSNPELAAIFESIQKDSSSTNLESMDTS
UniProt O43684, whole entry, looked up: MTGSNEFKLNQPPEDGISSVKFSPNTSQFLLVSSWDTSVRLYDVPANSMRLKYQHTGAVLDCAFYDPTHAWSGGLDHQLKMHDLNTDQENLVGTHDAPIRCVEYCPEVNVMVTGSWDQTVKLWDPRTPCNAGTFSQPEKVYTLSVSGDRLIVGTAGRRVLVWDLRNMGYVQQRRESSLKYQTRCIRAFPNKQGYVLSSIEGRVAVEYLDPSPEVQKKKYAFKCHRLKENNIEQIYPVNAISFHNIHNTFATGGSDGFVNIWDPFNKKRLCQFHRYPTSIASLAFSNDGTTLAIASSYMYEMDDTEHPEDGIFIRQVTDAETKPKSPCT
UniProt Q8N8R5: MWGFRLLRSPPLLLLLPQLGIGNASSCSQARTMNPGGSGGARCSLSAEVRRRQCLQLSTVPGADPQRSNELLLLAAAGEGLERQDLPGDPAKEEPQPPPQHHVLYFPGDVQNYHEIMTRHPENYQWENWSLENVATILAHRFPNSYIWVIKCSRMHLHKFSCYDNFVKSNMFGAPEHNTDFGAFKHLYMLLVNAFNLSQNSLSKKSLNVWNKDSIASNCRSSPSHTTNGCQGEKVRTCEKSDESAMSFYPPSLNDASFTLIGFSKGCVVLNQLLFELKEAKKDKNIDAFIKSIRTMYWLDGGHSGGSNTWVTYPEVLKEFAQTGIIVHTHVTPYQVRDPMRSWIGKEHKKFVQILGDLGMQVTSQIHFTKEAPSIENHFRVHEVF
UniProt Q96LT7: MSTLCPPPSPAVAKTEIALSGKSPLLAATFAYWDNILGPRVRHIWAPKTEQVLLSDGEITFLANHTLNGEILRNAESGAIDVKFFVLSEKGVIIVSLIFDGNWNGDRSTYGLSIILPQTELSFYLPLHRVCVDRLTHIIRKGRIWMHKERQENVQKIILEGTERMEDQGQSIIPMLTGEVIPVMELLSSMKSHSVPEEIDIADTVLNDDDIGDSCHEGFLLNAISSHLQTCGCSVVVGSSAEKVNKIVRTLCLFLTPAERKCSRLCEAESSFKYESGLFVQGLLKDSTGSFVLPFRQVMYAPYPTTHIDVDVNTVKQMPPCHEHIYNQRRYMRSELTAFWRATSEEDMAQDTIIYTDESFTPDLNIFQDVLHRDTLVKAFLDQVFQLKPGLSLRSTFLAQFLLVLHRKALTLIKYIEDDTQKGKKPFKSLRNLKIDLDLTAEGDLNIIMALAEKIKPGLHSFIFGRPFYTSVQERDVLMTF
UniProt Q96KE9: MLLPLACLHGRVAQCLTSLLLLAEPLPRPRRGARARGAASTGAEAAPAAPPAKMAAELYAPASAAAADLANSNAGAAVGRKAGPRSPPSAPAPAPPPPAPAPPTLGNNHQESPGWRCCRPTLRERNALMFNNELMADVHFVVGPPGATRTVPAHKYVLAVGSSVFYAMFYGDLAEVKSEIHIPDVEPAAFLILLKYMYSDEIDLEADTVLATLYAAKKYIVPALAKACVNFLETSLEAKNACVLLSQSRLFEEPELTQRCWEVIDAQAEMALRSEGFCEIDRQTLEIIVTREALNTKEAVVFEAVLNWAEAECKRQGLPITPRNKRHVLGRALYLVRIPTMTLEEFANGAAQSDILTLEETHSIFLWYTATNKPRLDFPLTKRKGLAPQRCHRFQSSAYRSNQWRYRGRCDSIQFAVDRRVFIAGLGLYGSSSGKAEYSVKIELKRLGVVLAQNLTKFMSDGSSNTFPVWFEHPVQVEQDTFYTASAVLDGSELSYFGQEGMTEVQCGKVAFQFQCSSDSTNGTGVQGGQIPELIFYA
UniProt P41223: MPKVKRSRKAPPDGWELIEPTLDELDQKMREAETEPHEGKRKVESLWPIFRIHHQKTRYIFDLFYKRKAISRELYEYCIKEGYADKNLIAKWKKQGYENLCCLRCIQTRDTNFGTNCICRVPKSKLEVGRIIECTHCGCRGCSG
UniProt Q5T5Y3: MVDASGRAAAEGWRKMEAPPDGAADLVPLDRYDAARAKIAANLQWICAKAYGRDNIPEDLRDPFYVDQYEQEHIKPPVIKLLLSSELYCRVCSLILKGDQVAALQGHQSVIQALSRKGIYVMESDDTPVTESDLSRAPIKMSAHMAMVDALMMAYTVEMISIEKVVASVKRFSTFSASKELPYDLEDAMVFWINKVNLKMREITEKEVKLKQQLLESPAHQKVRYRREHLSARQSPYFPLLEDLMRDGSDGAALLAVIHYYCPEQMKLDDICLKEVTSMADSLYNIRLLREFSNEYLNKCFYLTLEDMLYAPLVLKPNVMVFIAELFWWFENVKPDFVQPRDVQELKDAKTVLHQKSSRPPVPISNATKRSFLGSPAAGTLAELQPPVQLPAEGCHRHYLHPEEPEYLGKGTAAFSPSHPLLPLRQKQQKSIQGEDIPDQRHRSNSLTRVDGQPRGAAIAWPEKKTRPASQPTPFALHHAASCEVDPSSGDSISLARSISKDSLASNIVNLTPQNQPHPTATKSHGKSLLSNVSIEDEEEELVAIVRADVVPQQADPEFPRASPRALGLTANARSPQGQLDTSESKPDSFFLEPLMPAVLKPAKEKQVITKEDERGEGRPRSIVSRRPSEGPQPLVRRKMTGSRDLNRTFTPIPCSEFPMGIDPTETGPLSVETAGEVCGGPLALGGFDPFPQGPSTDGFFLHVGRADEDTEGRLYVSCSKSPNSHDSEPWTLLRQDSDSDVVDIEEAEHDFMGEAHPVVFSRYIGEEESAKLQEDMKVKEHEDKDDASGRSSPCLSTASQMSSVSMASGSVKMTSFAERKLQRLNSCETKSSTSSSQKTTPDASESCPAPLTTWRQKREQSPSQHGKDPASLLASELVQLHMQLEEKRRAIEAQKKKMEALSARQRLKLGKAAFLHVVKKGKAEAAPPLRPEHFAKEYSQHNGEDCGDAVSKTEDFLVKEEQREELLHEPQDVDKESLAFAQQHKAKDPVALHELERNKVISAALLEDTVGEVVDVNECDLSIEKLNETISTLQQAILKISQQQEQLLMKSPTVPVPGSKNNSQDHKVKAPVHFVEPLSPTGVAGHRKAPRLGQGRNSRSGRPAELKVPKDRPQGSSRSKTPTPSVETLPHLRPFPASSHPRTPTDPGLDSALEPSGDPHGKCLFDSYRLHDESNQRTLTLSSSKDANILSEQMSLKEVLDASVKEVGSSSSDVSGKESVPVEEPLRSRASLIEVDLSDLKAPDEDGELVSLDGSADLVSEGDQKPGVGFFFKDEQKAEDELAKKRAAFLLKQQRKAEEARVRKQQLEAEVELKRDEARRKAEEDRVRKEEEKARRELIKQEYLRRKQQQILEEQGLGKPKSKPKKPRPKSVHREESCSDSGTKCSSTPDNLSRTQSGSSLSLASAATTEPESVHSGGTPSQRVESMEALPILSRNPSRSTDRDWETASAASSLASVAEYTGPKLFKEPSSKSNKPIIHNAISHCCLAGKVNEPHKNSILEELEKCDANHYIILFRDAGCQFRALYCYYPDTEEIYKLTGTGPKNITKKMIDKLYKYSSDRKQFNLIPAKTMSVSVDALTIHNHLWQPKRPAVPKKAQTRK
UniProt Q10589, whole entry, looked up: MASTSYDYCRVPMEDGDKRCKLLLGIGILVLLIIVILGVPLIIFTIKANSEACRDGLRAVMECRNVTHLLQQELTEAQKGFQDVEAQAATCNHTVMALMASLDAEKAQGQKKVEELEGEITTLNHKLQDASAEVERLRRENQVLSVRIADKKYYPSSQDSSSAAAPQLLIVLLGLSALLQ
UniProt Q9Y2V2: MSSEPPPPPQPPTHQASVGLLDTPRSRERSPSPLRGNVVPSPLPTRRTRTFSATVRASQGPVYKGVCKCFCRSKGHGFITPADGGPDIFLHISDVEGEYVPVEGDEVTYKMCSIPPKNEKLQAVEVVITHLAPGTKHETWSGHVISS
UniProt Q8WUR7: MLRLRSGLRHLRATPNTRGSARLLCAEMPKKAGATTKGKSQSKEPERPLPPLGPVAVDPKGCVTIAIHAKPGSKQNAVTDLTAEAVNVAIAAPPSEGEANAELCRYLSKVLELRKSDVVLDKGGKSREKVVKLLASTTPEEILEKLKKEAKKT
UniProt Q6ZSJ8: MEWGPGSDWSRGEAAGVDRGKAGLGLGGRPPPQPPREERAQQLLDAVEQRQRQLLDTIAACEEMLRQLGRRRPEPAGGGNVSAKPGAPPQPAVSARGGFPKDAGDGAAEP
UniProt P49069: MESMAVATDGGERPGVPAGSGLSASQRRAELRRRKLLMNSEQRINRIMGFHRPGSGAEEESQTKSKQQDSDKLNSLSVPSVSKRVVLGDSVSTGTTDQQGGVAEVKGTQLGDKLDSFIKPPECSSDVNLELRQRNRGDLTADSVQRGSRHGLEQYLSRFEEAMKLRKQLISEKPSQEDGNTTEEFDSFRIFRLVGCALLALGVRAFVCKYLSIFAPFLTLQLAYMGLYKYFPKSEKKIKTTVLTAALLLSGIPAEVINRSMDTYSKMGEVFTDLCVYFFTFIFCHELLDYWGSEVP

Legend:
Assay in all cases: log2 fold change, soluble protein after heating vs DMSO (PISA); higher = thermal stabilisation; K562 cells, 10 uM, 30 min; active = over 0.2 and 3.5 SD of the protein, either way, in both replicates (recomputed)
[1] = compound: C1=CC=C(C=C1)[C@H](COC2=CC3=C(C=C2)NC(=O)N3)NC(=O)C4=CC=CN(C4=O)CC5=CC(=C(C=C5)F)F
Procedure, shortened: (§1)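 Quantification of soluble protein used TMTpro 16plex LC-MS/MS, with channel sums equalised. Samples were the supernatant after 21,000xg for 90 min of pooled aliquots from K562 cells (2×10^6 cells/mL) treated with 10 μM compound for 30 min, heated for 3 min over 48°C-58°C, and extracted in PBS with 0.5% NP-40 at 4°C. Values, from duplicates, describe thermal stability against control samples on a log2 fold-change scale.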

[2] = compound: CC1=C(SC2=C1C(=N[C@H](C3=NN=C(N32)C)CC(=O)N)C4=CC=C(C=C4)Cl)C
Procedure, shortened: as §1

[3] = compound: CC1=C2C(=CC=C1)N=C(N(C2=O)C3=CC=CC=C3C)CN4C=NC5=C(N=CN=C54)N
Procedure, shortened: as §1

[4] = compound: Cc1sc2c(c1C)C(c1ccc(Cl)cc1)=N[C@@H](CC(=O)OC(C)(C)C)c1nnc(C)n1-2
Procedure, shortened: as §1

[5] = compound: c1ccc([C@@H]2C[C@H]2NC2CCNCC2)cc1
Procedure, shortened: as §1

Measured: log2 fold change

C1GALT1 (UniProt Q9NS00)
inactive: [1] -0.005 | [2] 0.02 | [3] -0.011 | [4] 0.013 | [5] -0.022

C8orf76 (UniProt Q96K31)
inactive: [1] 0.009 | [2] -0.023 | [3] 0.044 | [4] 0.027 | [5] 0.017

CAB39 (UniProt Q9Y376)
inactive: [1] 0.014 | [2] 0.008 | [3] 0.011 | [4] -0.019 | [5] 0.01

Taken from the results shown (2 entries):
C1GALT1 (UniProt Q9NS00)
inactive: [1] -0.005 | [2] 0.02 | [3] -0.011 | [4] 0.013 | [5] -0.022

C8orf76 (UniProt Q96K31)
inactive: [1] 0.009 | [2] -0.023 | [3] 0.044 | [4] 0.027 | [5] 0.017

Continuation.

C12orf29 (UniProt Q8N999)
inactive: [1] -0.001 | [2] 0.018 | [3] -0.027 | [4] 0.18 | [5] 0.046

C17orf75 (UniProt Q9HAS0)
inactive: [1] -0.045 | [2] 0.015 | [3] 0.018 | [4] -0.063 | [5] -0.008

BUD23 isoform 3 (UniProt O43709)
inactive: [1] 0.02 | [2] -0.071 | [3] -0.005 | [4] 0.089 | [5] -0.029

BTAF1 (UniProt O14981)
inactive: [1] 0.051 | [2] -0.003 | [3] 0.124 | [4] 0.005 | [5] 0.055

C1orf50 (UniProt Q9BV19)
inactive: [1] -0.259 | [2] 0.111 | [3] 0.052 | [4] -0.054 | [5] 0.021

C16orf58 (UniProt Q96GQ5)
inactive: [1] 0.023 | [2] 0.025 | [3] 0.088 | [4] -0.042 | [5] 0.013

CAPZA2 (UniProt P47755)
inactive: [1] -0.016 | [2] 0.071 | [3] 0.035 | [4] -0.034 | [5] -0.012

C12orf45 (UniProt Q8N5I9)
inactive: [1] 0.006 | [2] -0.003 | [3] 0.018 | [4] -0.016 | [5] 0.012

C6orf47 (UniProt O95873)
inactive: [1] 0.002 | [2] 0.077 | [3] 0.032 | [4] -0.025 | [5] 0.022

CAAP1 (UniProt Q9H8G2)
inactive: [1] 0.11 | [2] 0.105 | [3] -0.028 | [4] 0.026 | [5] 0.014

C18orf25 isoform 2 (UniProt Q96B23)
inactive: [1] -0.006 | [2] 0.049 | [3] 0.074 | [4] 0.022 | [5] 0.097

C1orf198 (UniProt Q9H425)
inactive: [1] 0.022 | [2] 0.017 | [3] -0.019 | [4] 0.045 | [5] 0.005

CAND1 (UniProt Q86VP6)
inactive: [1] 0.021 | [2] 0.001 | [3] -0.004 | [4] -0.019 | [5] 0.016

BUB3 (UniProt O43684)
inactive: [1] 0.007 | [2] 0.03 | [3] 0.031 | [4] -0.007 | [5] 0.008

C18orf25 (UniProt Q96B23)
inactive: [1] 0.079 | [2] -0.03 | [3] -0.045 | [4] -0.026 | [5] -0.006

CAPN2 (UniProt P17655)
inactive: [1] -0.013 | [2] 0.065 | [3] -0.003 | [4] -0.008 | [5] 0.006

CAPN7 (UniProt Q9Y6W3)
inactive: [1] -0.046 | [2] 0.044 | [3] 0.014 | [4] 0.015 | [5] -0.016

C2orf69 (UniProt Q8N8R5)
inactive: [1] -0.041 | [2] 0 | [3] -0.052 | [4] 0.002 | [5] 0.034

CARD19 isoform 2 (UniProt Q96LW7)
inactive: [1] 0.059 | [2] 0.078 | [3] 0.104 | [4] -0.231 | [5] -0.05

CAPZB (UniProt P47756)
inactive: [1] 0.008 | [2] 0.01 | [3] 0.025 | [4] -0.024 | [5] -0.044

C9orf72 (UniProt Q96LT7)
inactive: [1] 0.02 | [2] 0.009 | [3] 0.085 | [4] -0.115 | [5] 0.002

C20orf27 isoform 2 (UniProt Q9GZN8)
inactive: [1] 0.049 | [2] 0.054 | [3] 0.234 | [4] 0.017 | [5] 0.01

BTBD6 (UniProt Q96KE9)
inactive: [1] 0.12 | [2] 0.073 | [3] 0.04 | [4] -0.117 | [5] -0.099

BZW2 (UniProt Q9Y6E2)
inactive: [1] -0.069 | [2] 0.042 | [3] 0.025 | [4] -0.033 | [5] -0.014

CAP1 (UniProt Q01518)
inactive: [1] -0.012 | [2] 0.05 | [3] 0.024 | [4] -0.025 | [5] -0.044

C9orf40 (UniProt Q8IXQ3)
inactive: [1] 0.041 | [2] -0.058 | [3] 0.039 | [4] -0.062 | [5] 0.072

BUD31 (UniProt P41223)
inactive: [1] -0.002 | [2] 0.06 | [3] 0.051 | [4] -0.018 | [5] -0.019

CAMSAP1 isoform 3 (UniProt Q5T5Y3)
inactive: [1] -0.06 | [2] 0.083 | [3] 0.221 | [4] 0.016 | [5] 0.02

CAMK2G isoform 6 (UniProt Q13555)
inactive: [1] -0.017 | [2] 0.054 | [3] 0.044 | [4] 0.096 | [5] -0.021

BSG (UniProt P35613)
inactive: [1] 0.007 | [2] 0.079 | [3] 0.048 | [4] -0.006 | [5] 0.051

BUB1 (UniProt O43683)
inactive: [1] -0.015 | [2] 0.084 | [3] 0.112 | [4] 0.067 | [5] 0.018

CAPRIN1 (UniProt Q14444)
inactive: [1] 0.063 | [2] -0.134 | [3] -0.181 | [4] 0.169 | [5] 0.071

CAPG (UniProt P40121)
inactive: [1] -0.014 | [2] 0.05 | [3] 0.034 | [4] -0.039 | [5] 0.008

BST2 (UniProt Q10589)
inactive: [1] 0.056 | [2] 0.019 | [3] -0.012 | [4] 0.068 | [5] 0.055

CAND2 (UniProt O75155)
inactive: [1] -0.006 | [2] 0.007 | [3] -0.024 | [4] 0.051 | [5] 0.069

CAMKK2 (UniProt Q96RR4)
inactive: [1] -0.047 | [2] 0.388 | [3] 0.023 | [4] 0.019 | [5] 0.149

C2orf49 (UniProt Q9BVC5)
inactive: [1] -0.074 | [2] -0.171 | [3] -0.106 | [4] 0.087 | [5] -0.088

C12orf65 (UniProt Q9H3J6)
inactive: [1] 0.05 | [2] -0.083 | [3] -0.321 | [5] 0.061

CARHSP1 (UniProt Q9Y2V2)
inactive: [1] 0.03 | [2] 0.073 | [3] 0.03 | [4] 0.005 | [5] -0.007

C15orf40 (UniProt Q8WUR7)
inactive: [1] -0.005 | [2] 0.013 | [3] 0.003 | [4] 0.063 | [5] 0.09

C19orf53 (UniProt Q9UNZ5)
inactive: [1] 0.105 | [2] -0.258 | [3] -0.266 | [4] 0.203 | [5] -0.01

BTD isoform 3 (UniProt P43251)
inactive: [1] -0.013 | [2] -0.005 | [3] -0.053 | [4] 0.013 | [5] 0.095

C19orf57 (UniProt Q0VDD7)
inactive: [1] 0.051 | [2] -0.039 | [3] 0.012 | [5] 0.116

C1orf122 (UniProt Q6ZSJ8)
inactive: [1] 0 | [2] 0.02 | [3] 0.078 | [4] -0.088 | [5] -0.04

CALR (UniProt P27797)
inactive: [1] 0.062 | [2] -0.022 | [3] -0.054 | [4] 0.002 | [5] -0.004

CAMLG (UniProt P49069)
inactive: [1] -0.008 | [2] 0.006 | [3] 0.114 | [4] -0.015 | [5] 0.035

BYSL (UniProt Q13895)
inactive: [1] 0.001 | [2] -0.085 | [3] -0.09 | [4] 0.02 | [5] -0.042

CACYBP (UniProt Q9HB71)
inactive: [1] -0.02 | [2] 0.048 | [3] 0.063 | [4] -0.024 | [5] -0.015

C3 (UniProt P01024)
inactive: [1] -0.041 | [2] -0.065 | [3] -0.004 | [4] 0.053 | [5] 0.074

CA1 (UniProt E5RIF9)
inactive: [1] -0.021 | [3] 0.187 | [4] 0.143
